The list shows a part of the results. These are raw signals, not scaled to a control.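 Primary screen: polymyxin B was added at a level permeabilizing Salmonella outer membranes while sparing inner membranes. DMSO wells, both with and without polymyxin B, established maximum growth. Plate-to-plate variation meant each plate was ranked on its own, and the lowest-OD600 compounds were selected as hits.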
System: Salmonella enterica serovar Typhimurium SL1344
Assay: bacterial growth OD600 after 18 h with compound and polymyxin B; higher = more bacterial growth (less inhibition)
Conditions: 50 µM, Mueller-Hinton broth

SMILES	bacterial growth OD600 (polymyxin B 0.75 µg/mL)	bacterial growth OD600 (polymyxin B 1 µg/mL)
COc1cccc(-c2ccc(NC(=O)C3CCCN(Cc4cnc(N)nc4)C3)cc2)c1 (stereo not given)	0.005	
COc1cccc(CN2CCOc3ccc(C(O)CCc4ccccc4)cc3C2)c1 (stereo not given)	0.007	
O=C(c1ccc(Oc2ccccc2)cc1)C1CCCN(C(=O)c2cnsn2)C1 (stereo not given)		0.018
CCn1nc(C)cc1C(=O)NCc1cccnc1Oc1ccccc1C		0.914
COc1cccc(CN2C(=O)CCC2CCNCCOc2ccc(F)cc2)c1 (stereo not given)	0.901	
O=C(c1ccc(N2CCC(NCCc3cccc(F)c3)CC2)cc1)N1CCCC(O)C1 (stereo not given)	0.923	
CN(C(=O)c1coc(COc2cccc(F)c2)n1)C1CCOC1 (stereo not given)		1
COc1ccc(OC)c(S(=O)(=O)N(Cc2cccc(OCCN3CCOCC3)c2)Cc2ccccn2)c1	0.812	
Cc1ccc(OCCN(C)C(=O)C2CC23CCN(Cc2ccc(N(C)C)cc2)CC3)cc1 (stereo not given)	0.647	
CN(Cc1cccc2ccccc12)C(=O)C1CCC(=O)N(CCc2cccc(F)c2)C1 (stereo not given)		0.491
CCOCCNC(=O)C1(N2CCN(CC)CC2)Cc2ccccc2C1	0.892	
Cc1ncc(CN2CCC(C3CCN(c4ncccn4)CC3)C2)cn1 (stereo not given)	0.988	
O=C(NCCc1ccccn1)C1CC12CCN(C(=O)/C=C/c1ccc(F)cc1)CC2 (stereo not given)	0.844	
O=C(Nc1ccc(Oc2cccnc2)cc1)C1CCCCN1Cc1ccccc1 (stereo not given)		0.876
COc1ccc(C(=O)NC2CC2)c(OC2CCN(C3CCOCC3)CC2)c1	0.836	
CC1CN(Cc2ccc3c(c2)CCO3)Cc2ccccc2O1 (stereo not given)	0.786	
CCN1CCC(N2CCC(C(=O)Nc3ccc(Oc4ccccc4F)cc3)CC2)CC1		0.9
COc1cccc(OCC2CCCN(Cc3nc(-c4ccccc4)no3)C2)c1 (stereo not given)		0.843
Cc1ccc(OCc2cc(C(=O)N3CCCCC3c3ccc(F)cc3)no2)cn1 (stereo not given)		0.021
CN(Cc1cnccn1)C(=O)CC(c1ccccc1)c1ccc(Cl)cc1 (stereo not given)		0.712

Arranged by length of the SMILES (rising): some entries from above
SMILES	bacterial growth OD600 (polymyxin B 0.75 µg/mL)	bacterial growth OD600 (polymyxin B 1 µg/mL)
CC1CN(Cc2ccc3c(c2)CCO3)Cc2ccccc2O1 (stereo not given)	0.786	
Cc1ncc(CN2CCC(C3CCN(c4ncccn4)CC3)C2)cn1 (stereo not given)	0.988	
COc1ccc(C(=O)NC2CC2)c(OC2CCN(C3CCOCC3)CC2)c1	0.836	

— the supplement of paper PMC12889115
